PubChem BioAssay AID1159578, Peter MacCallum Cancer Centre, 2015
This is a random part of about 18,000 reagents tested. About 1,030 of all reagents (5.7%) were called active. 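Inactive calls also include pools with fewer than 3300 nuclei, whose migration was not assessed.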 Raw values vary from plate to plate and are shown uncorrected. A number with no mark means an inactive call. No sequences are given here.

Screen: 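Knock-downs that alter how fast lymphatic endothelial cells migrate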 (primary screen)
Cell system: human lymphatic endothelial cells
Knock-down reagent: siRNA pool against human genes, 40 nM
Time to read-out: 48 h after transfection
Measurement: 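High-content imaging of dye-stained cells in a scratch assay measures filled wound area and nuclei per well; duplicate means given as ratio to mock and robust z-score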
Reading the numbers: migration robust z-score: higher = faster migration into the scratch; migration relative to mock: higher = more scratch area covered than mock; nuclei per well: higher = more cells in the well
Hit rule: 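Migration changed when robust z exceeds 2 or falls below -2 and mean nuclei number is at least 3300; otherwise not called changed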
Meaning of the calls: active = migration changed; inactive = no migration change, or too few cells

target | migration robust z-score | migration class with cell-count check | migration relative to mock | nuclei per well, duplicate mean
ONECUT3 (one cut homeobox 3) | 1.92 | migration z between -2 and 2; enough cells | 1.38 | 6370
ZNF322P1 (zinc finger protein 322 pseudogene 1) | 0.15 | migration z between -2 and 2; enough cells | 0.92 | 4362
DEFB1 (defensin beta 1) | 2.9 (active) | migration z above 2; enough cells | 1.64 | 5558
AACS (acetoacetyl-CoA synthetase) | 0.16 | migration z between -2 and 2; enough cells | 0.84 | 6201
FAM111B (FAM111 trypsin like peptidase B) | 0.44 | migration z between -2 and 2; enough cells | 1 | 5874
CERS1 (ceramide synthase 1) | -1.34 | migration z between -2 and 2; enough cells | 0.54 | 5406
UBE2B (ubiquitin conjugating enzyme E2 B) | 0 | migration z between -2 and 2; enough cells | 0.8 | 4631
RAB40A (RAB40A, member RAS oncogene family) | -0.94 | migration z between -2 and 2; enough cells | 0.62 | 5258
MTR (5-methyltetrahydrofolate-homocysteine methyltransferase) | -2.59 (active) | migration z below -2; enough cells | 0.3 | 4620
PRR19 (proline rich 19) | -0.06 | migration z between -2 and 2; enough cells | 0.87 | 5815
RABEP1 (rabaptin, RAB GTPase binding effector protein 1) | 0.12 | migration z between -2 and 2; enough cells | 0.92 | 5852
NUCB1 (nucleobindin 1) | -2.27 (active) | migration z below -2; enough cells | 0.3 | 4702
B3GLCT (beta 3-glucosyltransferase) | 1.16 | migration z between -2 and 2; enough cells | 1.19 | 6579
RNASEL (ribonuclease L) | -1.25 | migration z between -2 and 2; enough cells | 0.56 | 3936
GALNT13 (polypeptide N-acetylgalactosaminyltransferase 13) | -0.13 | migration z between -2 and 2; enough cells | 0.78 | 5852
PDXDC1 (pyridoxal dependent decarboxylase domain containing 1) | -4.2 | under 3300 nuclei; migration not judged | -0.23 | 2940
CAPNS2 (calpain small subunit 2) | -0.05 | migration z between -2 and 2; enough cells | 0.8 | 4614
PLAAT1 (phospholipase A and acyltransferase 1) | 1.42 | migration z between -2 and 2; enough cells | 1.08 | 5936
CDK2AP1 (cyclin dependent kinase 2 associated protein 1) | -2.1 (active) | migration z below -2; enough cells | 0.4 | 5628
TNFAIP8 (TNF alpha induced protein 8) | -0.83 | migration z between -2 and 2; enough cells | 0.64 | 6562
IFI27 (interferon alpha inducible protein 27) | 0.17 | migration z between -2 and 2; enough cells | 0.93 | 5403
WDR27 (WD repeat domain 27) | 0.68 | migration z between -2 and 2; enough cells | 1.06 | 4968
DISP1 (dispatched RND transporter family member 1) | -0.68 | migration z between -2 and 2; enough cells | 0.7 | 5352
GOLT1B (golgi transport 1B) | 0.43 | migration z between -2 and 2; enough cells | 1 | 6717
PMEL (premelanosome protein) | -2.33 (active) | migration z below -2; enough cells | 0.36 | 5706
MTBP (MDM2 binding protein) | 0.26 | migration z between -2 and 2; enough cells | 0.96 | 5832
IL1B (interleukin 1 beta) | -2.36 (active) | migration z below -2; enough cells | 0.35 | 6516
OR9A2 (olfactory receptor family 9 subfamily A member 2) | 0.48 | migration z between -2 and 2; enough cells | 1.01 | 5188
MS4A4A (membrane spanning 4-domains A4A) | -2.07 (active) | migration z below -2; enough cells | 0.34 | 4227
SSRP1 (structure specific recognition protein 1) | 0.86 | migration z between -2 and 2; enough cells | 1.11 | 6320
TRPV6 | -0.9 | migration z between -2 and 2; enough cells | 0.63 | 5928
GJA1 (gap junction protein alpha 1) | -0.5 | migration z between -2 and 2; enough cells | 0.71 | 5768
GATA2 (GATA binding protein 2) | 0.08 | migration z between -2 and 2; enough cells | 0.82 | 6262
ARMCX3 (armadillo repeat containing X-linked 3) | -0.72 | migration z between -2 and 2; enough cells | 0.7 | 4712
APOL2 (apolipoprotein L2) | -1.11 | migration z between -2 and 2; enough cells | 0.6 | 5280
IARS2 (isoleucyl-tRNA synthetase 2, mitochondrial) | 1.5 | migration z between -2 and 2; enough cells | 1.27 | 7065
KLHL41 (kelch like family member 41) | -0.58 | migration z between -2 and 2; enough cells | 0.74 | 5484
LYPD4 (LY6/PLAUR domain containing 4) | 0.71 | migration z between -2 and 2; enough cells | 1.07 | 7540
MPST (mercaptopyruvate sulfurtransferase) | -3.68 (active) | migration z below -2; enough cells | 0.1 | 4246
IDH2 (isocitrate dehydrogenase (NADP(+)) 2) | -0.21 | migration z between -2 and 2; enough cells | 0.76 | 4564
LRRN4 (leucine rich repeat neuronal 4) | 1.28 | migration z between -2 and 2; enough cells | 1.21 | 6076
CYP4F11 (cytochrome P450 family 4 subfamily F member 11) | -2.41 (active) | migration z below -2; enough cells | 0.34 | 5208
EMID1 (EMI domain containing 1) | 0.25 | migration z between -2 and 2; enough cells | 0.95 | 5174
KCNJ9 (potassium inwardly rectifying channel subfamily J member 9) | -1.74 | migration z between -2 and 2; enough cells | 0.47 | 4622
OR7G3 (olfactory receptor family 7 subfamily G member 3) | 0.05 | migration z between -2 and 2; enough cells | 0.9 | 5268
CCDC183 (coiled-coil domain containing 183) | 0.93 | migration z between -2 and 2; enough cells | 1.12 | 5961
SELE (selectin E) | 1.25 | migration z between -2 and 2; enough cells | 1.21 | 5766
SELL (selectin L) | -0.94 | migration z between -2 and 2; enough cells | 0.64 | 5832
H2AC1 (H2A clustered histone 1) | 0.62 | migration z between -2 and 2; enough cells | 1.04 | 5878
HMGB1P1 (high mobility group box 1 pseudogene 1) | 1.97 | migration z between -2 and 2; enough cells | 1.19 | 5138
PRXL2C (peroxiredoxin like 2C) | -1.41 | migration z between -2 and 2; enough cells | 0.52 | 4133
POLB (DNA polymerase beta) | 1.01 | migration z between -2 and 2; enough cells | 1 | 5950
MAGEB4 (MAGE family member B4) | 1.4 | migration z between -2 and 2; enough cells | 1.25 | 5594
H4C1 (H4 clustered histone 1) | 0.81 | migration z between -2 and 2; enough cells | 1.1 | 5816
PTPRN (protein tyrosine phosphatase receptor type N) | -0.9 | migration z between -2 and 2; enough cells | 0.63 | 4025
ZNF143 (zinc finger protein 143) | 1.55 | migration z between -2 and 2; enough cells | 1.1 | 6694
RETREG1 (reticulophagy regulator 1) | 0.55 | migration z between -2 and 2; enough cells | 1.03 | 4544

Entries listed so far whose target name starts with G or g:
target | migration robust z-score | migration class with cell-count check | migration relative to mock | nuclei per well, duplicate mean
GALNT13 (polypeptide N-acetylgalactosaminyltransferase 13) | -0.13 | migration z between -2 and 2; enough cells | 0.78 | 5852
GOLT1B (golgi transport 1B) | 0.43 | migration z between -2 and 2; enough cells | 1 | 6717
GJA1 (gap junction protein alpha 1) | -0.5 | migration z between -2 and 2; enough cells | 0.71 | 5768
GATA2 (GATA binding protein 2) | 0.08 | migration z between -2 and 2; enough cells | 0.82 | 6262
